Experimental data as given in patent US20090263341A1, “SOFT ANTICHOLINERGIC ESTERS” (priority 2005, published 2009).

System: electrically stimulated guinea pig tracheal strips
Assay: Time course of anticholinergic effect in electrically stimulated guinea pig trachea

CC(C)[N+]1(C)[C@@H]2CC[C@H]1CC(OC(=O)C(CO)c1ccccc1)C2.[Br-] (stereo partly shown) [Ipratropium Br, ipratropium bromide]
t1/5 offset: 6.5 min
